Experimental data from PMC9758184.
The exact form of at least one protein or probe is not confirmed. A negative result means that nothing was seen under these conditions. The comparison behind a weaker result is the experiment's own reference, which may not be listed here.

Tested on: PmlR2 (Pseudomonas mendocina NBRC 14162)
Experiment: SPR
Conditions: SPR: HBS-EP, 28 C, recombinant protein, label: 5' biotin on strand 1

Sequence: GTGTCTAGAATGACCGGCTCACCTGAGCCTGGGTTTTTGCCCAAACGGTT (double strand) [P468 (BIA-3F/BIA-4F)]
- binding result (8.6-275.2 nM PmlR2): no binding

Sequence: GATAGACACAGGTTGTACAAGAACAAGTTTATGTACAAGGTCTTTCGAGG (double strand) [Site 2 of P6650 (BIA-1F/BIA-1R)]
- binding result (34.4 nM PmlR2 with 292.3 nM PmSB-LOV, blue light 450 nm 90 s): binds more weakly
- binding result (34.4 nM PmlR2 with 292.3 nM PmSB-LOV, dark or 365 nm, green or red light): binds
- binding result (34.4 nM PmlR2 with 292.3 nM PmSB-LOVC53A (P3), no inhibition): binds
- binding result (34.4 nM PmlR2 with PmSB-LOV, blue light then long dark incubation (recovery)): binds
- binding result (8.6-275.2 nM PmlR2): binds
- binding result (PmlR2 alone, illuminated, affinity unaffected): binds

Sequence: GATAGACACAGGTAAGCTTAGAACAAGTTTAAAGCTTAGGTCTTTCGAGG (double strand) [mutated Site 2 (BIA-2F/BIA-2R)]
- binding result (8.6-275.2 nM PmlR2): no binding
